No constants are given. Whether binding was seen depends on the method and setting. In cells and extracts the contact can be indirect. Binding calls can cover weak binding; strength is not graded here. Where a sequence is shown, tags or fusion partners need not be part of it.
Target: Tet3 (endogenous, murine brain) (mouse (endogenous in murine brain)) (UniProt Q8BG87)
Test: co-IP; Tet3-endogenous coIP: 500 µg of nuclear brain extract, 2 µg of Tet3 antibody, Dynabeads Protein G, 4 °C; western blot; anti-goat IgG as negative control

Sequences of proteins named here, by UniProt entry; tags and fusion partners are left off. A change or cut given only in a name is not applied to a line headed by its entry.
UniProt Q8BG87: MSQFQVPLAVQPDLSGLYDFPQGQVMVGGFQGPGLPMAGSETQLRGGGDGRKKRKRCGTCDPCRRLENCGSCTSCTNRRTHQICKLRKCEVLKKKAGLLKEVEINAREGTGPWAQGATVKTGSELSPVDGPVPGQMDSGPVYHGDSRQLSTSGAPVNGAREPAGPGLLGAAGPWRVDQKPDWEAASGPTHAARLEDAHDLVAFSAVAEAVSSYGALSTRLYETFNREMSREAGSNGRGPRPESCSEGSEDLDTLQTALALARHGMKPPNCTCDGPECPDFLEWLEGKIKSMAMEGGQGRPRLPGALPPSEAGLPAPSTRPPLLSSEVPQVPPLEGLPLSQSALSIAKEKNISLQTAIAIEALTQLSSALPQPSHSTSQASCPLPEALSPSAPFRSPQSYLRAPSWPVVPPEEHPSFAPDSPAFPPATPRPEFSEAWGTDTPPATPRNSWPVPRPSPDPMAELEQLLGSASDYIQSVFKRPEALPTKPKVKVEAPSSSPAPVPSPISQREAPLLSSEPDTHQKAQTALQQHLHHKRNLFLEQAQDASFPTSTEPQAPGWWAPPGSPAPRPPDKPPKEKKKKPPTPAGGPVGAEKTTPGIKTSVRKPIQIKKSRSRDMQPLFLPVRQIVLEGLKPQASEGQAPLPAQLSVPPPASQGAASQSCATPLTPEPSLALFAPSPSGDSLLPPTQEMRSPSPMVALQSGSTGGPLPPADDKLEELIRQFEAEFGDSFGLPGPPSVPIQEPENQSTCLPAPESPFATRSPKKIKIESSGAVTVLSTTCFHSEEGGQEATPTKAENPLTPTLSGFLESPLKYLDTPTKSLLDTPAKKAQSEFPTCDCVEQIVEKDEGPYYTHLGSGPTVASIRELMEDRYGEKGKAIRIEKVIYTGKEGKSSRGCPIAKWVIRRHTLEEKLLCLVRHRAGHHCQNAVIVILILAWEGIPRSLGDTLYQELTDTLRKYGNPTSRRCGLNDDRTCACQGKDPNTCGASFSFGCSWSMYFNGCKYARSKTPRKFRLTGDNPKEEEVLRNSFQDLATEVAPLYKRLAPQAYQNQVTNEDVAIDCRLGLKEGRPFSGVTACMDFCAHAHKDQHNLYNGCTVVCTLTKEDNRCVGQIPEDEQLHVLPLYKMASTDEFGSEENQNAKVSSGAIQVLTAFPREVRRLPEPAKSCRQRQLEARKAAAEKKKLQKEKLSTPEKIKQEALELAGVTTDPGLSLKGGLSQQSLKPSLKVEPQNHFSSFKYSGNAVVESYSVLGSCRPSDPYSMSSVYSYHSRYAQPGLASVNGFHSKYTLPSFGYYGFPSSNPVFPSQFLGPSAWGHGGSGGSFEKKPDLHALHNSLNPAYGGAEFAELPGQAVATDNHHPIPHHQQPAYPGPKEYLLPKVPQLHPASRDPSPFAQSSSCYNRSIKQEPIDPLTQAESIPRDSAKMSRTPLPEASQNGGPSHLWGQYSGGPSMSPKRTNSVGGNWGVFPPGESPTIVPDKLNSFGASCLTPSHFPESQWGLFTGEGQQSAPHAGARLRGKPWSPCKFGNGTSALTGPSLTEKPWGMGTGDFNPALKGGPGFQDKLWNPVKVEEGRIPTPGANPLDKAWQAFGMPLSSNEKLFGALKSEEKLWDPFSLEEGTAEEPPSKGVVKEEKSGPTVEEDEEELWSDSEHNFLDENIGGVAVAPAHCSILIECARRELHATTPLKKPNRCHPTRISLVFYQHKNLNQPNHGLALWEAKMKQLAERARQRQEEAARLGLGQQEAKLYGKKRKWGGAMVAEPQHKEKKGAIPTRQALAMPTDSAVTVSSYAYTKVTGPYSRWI

- binding: binds
B1: O-linked-β-N-acetylglucosamine-transferase (Ogt), endogenous, murine brain (enzyme, UniProt Q8CGY8 1-1046)
chain: MASSVGNVADSTEPTKRMLSFQGLAELAHREYQAGDFEAAERHCMQLWRQEPDNTGVLLLLSSIHFQCRRLDRSAHFSTLAIKQNPLLAEAYSNLGNVYKERGQLQEAIEHYRHALRLKPDFIDGYINLAAALVAAGDMEGAVQAYVSALQYNPDLYCVRSDLGNLLKALGRLEEAKACYLKAIETQPNFAVAWSNLGCVFNAQGEIWLAIHHFEKAVTLDPNFLDAYINLGNVLKEARIFDRAVAAYLRALSLSPNHAVVHGNLACVYYEQGLIDLAIDTYRRAIELQPHFPDAYCNLANALKEKGSVAEAEDCYNTALRLCPTHADSLNNLANIKREQGNIEEAVRLYRKALEVFPEFAAAHSNLASVLQQQGKLQEALMHYKEAIRISPTFADAYSNMGNTLKEMQDVQGALQCYTRAIQINPAFADAHSNLASIHKDSGNIPEAIASYRTALKLKPDFPDAYCNLAHCLQIVCDWTDYDERMKKLVSIVAEQLEKNRLPSVHPHHSMLYPLSHGFRKAIAERHGNLCLDKINVLHKPPYEHPKDLKLSDGRLRVGYVSSDFGNHPTSHLMQSIPGMHNPDKFEVFCYALSPDDGTNFRVKVMAEANHFIDLSQIPCNGKAADRIHQDGIHILVNMNGYTKGARNELFALRPAPIQAMWLGYPGTSGALFMDYIITDQETSPAEVAEQYSEKLAYMPHTFFIGDHANMFPHLKKKAVIDFKSNGHIYDNRIVLNGIDLKAFLDSLPDVKIVKMKCPDGGDNPDSSNTALNMPVIPMNTIAEAVIEMINRGQIQITINGFSISNGLATTQINNKAATGEEVPRTIIVTTRSQYGLPEDAIVYCNFNQLYKIDPSTLQMWANILKRVPNSVLWLLRFPAVGEPNIQQYAQNMGLPQNRIIFSPVAPKEEHVRRGQLADVCLDTPLCNGHTTGMDVLWAGTPMVTMPGETLASRVAASQLTCLGCLELIAKSRQEYEDIAVKLGTDLEYLKKIRGKVWKQRISSPLFNTKQYTMELERLYLQMWEHYAAGNKPDHMIKPVEVTESA

Reference: publication PMC8253819
